Some of the results follow. Shown are side measurements of this screen, not its main read-out; they come without a call. The list favours compounds with an active or inconclusive main result. Words in brackets tell the shape of the fitted curve; partial curves, single points and poor fits give uncertain potencies.
Experiment: Cell signaling CRE-BLA (Fsk stim)
Settings: CHO CRE-bla reporter (cAMP response element driving beta-lactamase), forskolin EC10, beta-lactamase ratio; measured here: 460 nm blue channel
Outline: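 Cells were plated overnight at 37 °C, exposed to compound titrations plus EC10 NKH 477 for 3 h, then given CCF4 dye for 2 h at room temperature. Blue/green (460/530 nm) ratio was converted to %Activity and AC50 values calculated.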

Row | Structure (SMILES) | AC50
1 | COc1ccc(C(=O)CSc2nc3nc(C)cc(C)n3n2)cc1OC | 5.01 µM [rising, partial curve]
2 | N#Cc1ccccc1-c1ccc2ncnc(NCc3cccnc3)c2c1 | 5.01 µM [rising, partial curve]
3 | O=c1[nH]c2ccccc2c2nc3ccccn3c12 | 10 µM [rising, partial curve]
4 | CCc1nc(SCCO)c2oc3ccccc3c2n1 | 5.01 µM [rising, partial curve]
5 | COc1ccc(-c2cc(C(=O)NCc3cccnc3)no2)cc1 | 12.6 µM [falling, partial curve]
6 | CN1CCN(C(=O)CSc2nc(-c3cccs3)cc(-c3cccs3)c2C#N)CC1 | 25.1 µM [rising, single point]
7 | CC(C)Oc1ccc(C(=O)N(CN2CCCC2=O)c2ccc(F)cc2)cc1 | 0.1 µM [falling, full curve]
8 | O=C(c1cc(Cl)cc(Cl)c1)N1CCOCC1 | 0.00398 µM [rising, full curve, poor fit]
9 | O=C(c1cc(-c2cccs2)on1)N1CCOCC1 | 15.8 µM [falling, partial curve]
10 | CCN(CC)C(=O)CSC1=Nc2ccccc2C2=NC(Cc3c[nH]c4ccccc34)C(=O)N12 (stereo not given) | 3.16 µM [rising, partial curve]
11 | COc1cc(OC)cc(C(=O)NCC(=O)OC2CCOC2=O)c1 (stereo not given) | 5.01 µM [falling, single point]
12 | COc1ccc2nc(S(=O)Cc3ncc(C)c(OC)c3C)[nH]c2c1 (stereo not given) | 7.94 µM [rising, partial curve]
13 | C=CCn1cnc2scc(-c3ccccc3)c2c1=O | 12.6 µM [rising, partial curve]
14 | C=C1CC[C@@H]2[C@](C)(CC[C@@H](O)[C@]2(C)CO)[C@@H]1C/C=C1/C(=O)OC[C@H]1O | 31.6 µM [falling, single point]
15 | CCOC(=O)C1CCCc2c1[nH]c1c(C(=O)O)cccc21 (stereo not given) | 0.0794 µM [rising, full curve, poor fit]
16 | COc1ccc(-c2cnc(N)n2CC2CCCO2)cc1 (stereo not given) | 15.8 µM [rising, single point]
17 | O=S(=O)(c1cccc(-c2nnco2)c1)N1CCCC1 | 5.01 µM [falling, single point]
18 | Cc1ccccc1C(=O)c1cccn1CC(=O)NCc1ccco1 | 0.126 µM [falling, full curve]
19 | Cc1c(C(=O)N2CCN(c3ccccn3)CC2)oc2ccccc12 | 3.16 µM [rising, single point]
20 | CCOC(=O)C1=C(C)N(C)C(=O)NC1c1ccc(C)s1 (stereo not given) | 0.00316 µM [falling, full curve, poor fit]

Given field by field: entries from further up.
N#Cc1ccccc1-c1ccc2ncnc(NCc3cccnc3)c2c1
  AC50: 5.01 µM [rising, partial curve]
O=c1[nH]c2ccccc2c2nc3ccccn3c12
  AC50: 10 µM [rising, partial curve]

Source: PubChem BioAssay AID662 (National Center for Advancing Translational Sciences (NCATS), 2007)
